Results are given in words; binding and its absence hold for the method and conditions named. Some binding calls cover weakened binding; strength is not graded here. For some assays here: Where a sequence is shown, tags or fusion partners need not be part of it.
Experiments:
Assay in all cases: peptide or protein array; only the binder purified
[1] = molecular target: T1, ADP-ribosylation factor binding protein GGA1 (human) (UniProt Q9UJY5)
T1 sequence: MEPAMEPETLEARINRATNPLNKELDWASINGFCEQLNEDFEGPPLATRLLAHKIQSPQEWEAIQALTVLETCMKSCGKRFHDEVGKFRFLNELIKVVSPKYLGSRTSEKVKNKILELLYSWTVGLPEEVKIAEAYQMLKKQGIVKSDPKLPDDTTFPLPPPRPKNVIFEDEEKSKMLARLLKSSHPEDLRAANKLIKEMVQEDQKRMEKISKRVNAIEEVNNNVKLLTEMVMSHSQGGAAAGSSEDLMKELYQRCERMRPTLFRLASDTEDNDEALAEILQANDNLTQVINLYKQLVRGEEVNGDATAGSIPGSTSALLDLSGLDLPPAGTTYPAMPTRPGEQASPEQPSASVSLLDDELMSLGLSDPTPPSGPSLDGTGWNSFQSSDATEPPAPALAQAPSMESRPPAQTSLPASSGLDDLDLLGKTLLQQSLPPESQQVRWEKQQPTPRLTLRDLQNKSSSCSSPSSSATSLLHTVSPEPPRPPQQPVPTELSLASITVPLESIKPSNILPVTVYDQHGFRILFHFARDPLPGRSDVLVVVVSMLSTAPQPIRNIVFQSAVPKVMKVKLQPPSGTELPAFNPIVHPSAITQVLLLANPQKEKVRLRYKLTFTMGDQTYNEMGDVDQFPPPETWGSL

By UniProt entry, the sequences of proteins in these tests, tags left out. Where a name states a change or a piece, a line headed by the entry shows the natural chain unless it says otherwise. Chains listed by the source or under a name are the forms on record and can include a tag or linker.
UniProt O15379: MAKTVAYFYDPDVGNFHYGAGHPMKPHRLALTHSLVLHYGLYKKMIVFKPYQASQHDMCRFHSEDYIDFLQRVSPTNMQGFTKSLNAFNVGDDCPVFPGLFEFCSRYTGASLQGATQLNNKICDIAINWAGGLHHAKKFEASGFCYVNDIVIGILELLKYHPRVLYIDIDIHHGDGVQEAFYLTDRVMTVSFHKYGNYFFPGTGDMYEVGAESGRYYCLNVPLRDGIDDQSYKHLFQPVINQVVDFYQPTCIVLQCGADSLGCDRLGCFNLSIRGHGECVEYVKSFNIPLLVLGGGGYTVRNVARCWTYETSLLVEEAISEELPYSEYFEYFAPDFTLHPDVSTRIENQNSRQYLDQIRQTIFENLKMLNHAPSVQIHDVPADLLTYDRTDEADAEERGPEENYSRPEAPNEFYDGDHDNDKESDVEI
UniProt Q9BX40: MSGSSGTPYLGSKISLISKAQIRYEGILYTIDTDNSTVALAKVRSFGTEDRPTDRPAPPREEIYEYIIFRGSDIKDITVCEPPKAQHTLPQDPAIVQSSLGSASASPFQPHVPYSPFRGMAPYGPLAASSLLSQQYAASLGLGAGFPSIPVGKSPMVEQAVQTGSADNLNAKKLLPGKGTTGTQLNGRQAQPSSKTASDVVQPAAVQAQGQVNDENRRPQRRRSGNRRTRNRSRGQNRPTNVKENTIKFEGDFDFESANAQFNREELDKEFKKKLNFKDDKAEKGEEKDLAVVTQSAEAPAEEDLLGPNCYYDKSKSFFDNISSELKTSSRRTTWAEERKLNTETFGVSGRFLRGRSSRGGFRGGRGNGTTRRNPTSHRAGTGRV
Meis homeobox 2 (MEIS2) (O14770, form named): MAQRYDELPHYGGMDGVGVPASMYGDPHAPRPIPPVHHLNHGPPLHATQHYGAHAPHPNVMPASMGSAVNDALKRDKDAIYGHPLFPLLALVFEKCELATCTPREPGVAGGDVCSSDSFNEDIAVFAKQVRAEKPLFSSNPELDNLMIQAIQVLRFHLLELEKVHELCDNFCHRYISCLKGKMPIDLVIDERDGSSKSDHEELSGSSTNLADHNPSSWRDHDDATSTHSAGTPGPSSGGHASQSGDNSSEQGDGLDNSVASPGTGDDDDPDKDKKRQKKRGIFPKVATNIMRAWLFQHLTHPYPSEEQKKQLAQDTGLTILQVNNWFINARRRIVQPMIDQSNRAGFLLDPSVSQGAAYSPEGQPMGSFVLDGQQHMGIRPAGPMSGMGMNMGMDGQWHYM
UniProt O95793: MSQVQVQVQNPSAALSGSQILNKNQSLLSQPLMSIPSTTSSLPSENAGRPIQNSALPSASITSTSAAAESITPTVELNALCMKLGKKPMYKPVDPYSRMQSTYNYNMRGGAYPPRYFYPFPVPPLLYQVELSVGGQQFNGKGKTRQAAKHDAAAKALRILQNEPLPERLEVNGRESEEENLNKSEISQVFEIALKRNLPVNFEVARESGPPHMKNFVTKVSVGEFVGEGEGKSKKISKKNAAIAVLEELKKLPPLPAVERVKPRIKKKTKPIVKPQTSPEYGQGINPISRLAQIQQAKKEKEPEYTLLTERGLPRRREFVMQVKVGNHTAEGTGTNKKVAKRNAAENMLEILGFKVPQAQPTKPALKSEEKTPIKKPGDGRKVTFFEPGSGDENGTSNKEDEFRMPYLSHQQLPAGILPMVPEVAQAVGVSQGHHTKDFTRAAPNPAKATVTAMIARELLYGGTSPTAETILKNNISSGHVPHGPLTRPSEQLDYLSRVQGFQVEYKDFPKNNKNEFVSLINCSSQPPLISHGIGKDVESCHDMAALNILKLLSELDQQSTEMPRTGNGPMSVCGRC
UniProt Q9C0C2: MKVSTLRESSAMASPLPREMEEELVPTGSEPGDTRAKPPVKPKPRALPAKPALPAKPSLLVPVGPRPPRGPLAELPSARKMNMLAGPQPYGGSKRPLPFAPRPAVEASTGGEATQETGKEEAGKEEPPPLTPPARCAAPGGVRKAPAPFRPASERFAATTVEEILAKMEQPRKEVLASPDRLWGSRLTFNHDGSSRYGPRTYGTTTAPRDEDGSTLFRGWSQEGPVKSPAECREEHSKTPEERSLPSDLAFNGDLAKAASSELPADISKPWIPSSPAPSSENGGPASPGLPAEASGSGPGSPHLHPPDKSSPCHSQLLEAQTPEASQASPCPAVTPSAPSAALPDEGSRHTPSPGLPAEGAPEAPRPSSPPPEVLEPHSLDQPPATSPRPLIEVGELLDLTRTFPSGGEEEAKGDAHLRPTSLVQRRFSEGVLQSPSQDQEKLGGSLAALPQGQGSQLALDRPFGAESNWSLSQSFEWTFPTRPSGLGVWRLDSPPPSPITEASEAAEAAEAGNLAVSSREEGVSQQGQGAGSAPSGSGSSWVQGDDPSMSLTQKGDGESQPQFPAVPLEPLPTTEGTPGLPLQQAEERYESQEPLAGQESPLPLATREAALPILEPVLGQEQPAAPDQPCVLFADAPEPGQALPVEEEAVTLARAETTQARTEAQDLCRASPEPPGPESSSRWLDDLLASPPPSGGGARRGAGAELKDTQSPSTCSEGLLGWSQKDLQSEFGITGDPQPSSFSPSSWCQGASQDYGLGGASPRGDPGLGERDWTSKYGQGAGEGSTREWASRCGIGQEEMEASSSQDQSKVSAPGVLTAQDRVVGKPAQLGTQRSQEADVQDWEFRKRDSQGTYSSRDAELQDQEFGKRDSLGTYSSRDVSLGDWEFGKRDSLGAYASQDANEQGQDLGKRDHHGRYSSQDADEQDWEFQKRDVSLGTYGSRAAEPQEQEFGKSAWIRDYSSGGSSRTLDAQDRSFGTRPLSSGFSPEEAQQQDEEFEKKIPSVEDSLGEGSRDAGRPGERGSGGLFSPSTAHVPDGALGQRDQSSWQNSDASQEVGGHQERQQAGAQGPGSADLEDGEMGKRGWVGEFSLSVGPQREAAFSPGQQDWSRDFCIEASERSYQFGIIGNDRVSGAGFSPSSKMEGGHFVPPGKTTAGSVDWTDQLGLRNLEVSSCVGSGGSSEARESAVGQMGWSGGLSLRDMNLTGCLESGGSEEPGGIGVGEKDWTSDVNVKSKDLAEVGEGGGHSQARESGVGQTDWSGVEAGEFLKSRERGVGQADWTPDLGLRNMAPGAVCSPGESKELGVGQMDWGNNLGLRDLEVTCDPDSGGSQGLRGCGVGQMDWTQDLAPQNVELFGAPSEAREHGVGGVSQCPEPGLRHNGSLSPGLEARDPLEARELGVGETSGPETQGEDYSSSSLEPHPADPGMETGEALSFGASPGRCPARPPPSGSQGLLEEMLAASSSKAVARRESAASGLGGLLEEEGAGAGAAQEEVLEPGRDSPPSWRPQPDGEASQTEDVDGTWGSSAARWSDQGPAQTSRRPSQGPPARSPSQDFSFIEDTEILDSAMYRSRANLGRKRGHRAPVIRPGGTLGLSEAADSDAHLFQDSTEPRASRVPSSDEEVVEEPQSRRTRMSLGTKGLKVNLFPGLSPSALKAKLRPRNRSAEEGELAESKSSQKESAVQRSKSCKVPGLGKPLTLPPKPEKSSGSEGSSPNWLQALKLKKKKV
UniProt P15923: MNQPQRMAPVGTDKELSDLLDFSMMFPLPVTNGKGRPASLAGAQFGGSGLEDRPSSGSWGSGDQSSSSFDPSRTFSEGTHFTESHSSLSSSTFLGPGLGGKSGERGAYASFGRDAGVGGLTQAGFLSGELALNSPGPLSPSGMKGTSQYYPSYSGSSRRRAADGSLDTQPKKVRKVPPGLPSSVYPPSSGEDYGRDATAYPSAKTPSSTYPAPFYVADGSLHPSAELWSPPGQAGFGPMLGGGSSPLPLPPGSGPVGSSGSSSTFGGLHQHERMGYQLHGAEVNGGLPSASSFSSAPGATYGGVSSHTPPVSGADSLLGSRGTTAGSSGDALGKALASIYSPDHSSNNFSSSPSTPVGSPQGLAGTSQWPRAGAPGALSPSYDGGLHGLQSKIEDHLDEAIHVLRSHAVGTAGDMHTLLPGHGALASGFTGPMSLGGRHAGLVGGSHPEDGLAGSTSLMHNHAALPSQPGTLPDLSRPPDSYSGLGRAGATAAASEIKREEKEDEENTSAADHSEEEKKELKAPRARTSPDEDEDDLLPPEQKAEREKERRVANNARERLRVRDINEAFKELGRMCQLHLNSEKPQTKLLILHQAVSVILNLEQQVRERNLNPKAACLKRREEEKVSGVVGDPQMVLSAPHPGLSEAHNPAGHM
UniProt Q70EL1: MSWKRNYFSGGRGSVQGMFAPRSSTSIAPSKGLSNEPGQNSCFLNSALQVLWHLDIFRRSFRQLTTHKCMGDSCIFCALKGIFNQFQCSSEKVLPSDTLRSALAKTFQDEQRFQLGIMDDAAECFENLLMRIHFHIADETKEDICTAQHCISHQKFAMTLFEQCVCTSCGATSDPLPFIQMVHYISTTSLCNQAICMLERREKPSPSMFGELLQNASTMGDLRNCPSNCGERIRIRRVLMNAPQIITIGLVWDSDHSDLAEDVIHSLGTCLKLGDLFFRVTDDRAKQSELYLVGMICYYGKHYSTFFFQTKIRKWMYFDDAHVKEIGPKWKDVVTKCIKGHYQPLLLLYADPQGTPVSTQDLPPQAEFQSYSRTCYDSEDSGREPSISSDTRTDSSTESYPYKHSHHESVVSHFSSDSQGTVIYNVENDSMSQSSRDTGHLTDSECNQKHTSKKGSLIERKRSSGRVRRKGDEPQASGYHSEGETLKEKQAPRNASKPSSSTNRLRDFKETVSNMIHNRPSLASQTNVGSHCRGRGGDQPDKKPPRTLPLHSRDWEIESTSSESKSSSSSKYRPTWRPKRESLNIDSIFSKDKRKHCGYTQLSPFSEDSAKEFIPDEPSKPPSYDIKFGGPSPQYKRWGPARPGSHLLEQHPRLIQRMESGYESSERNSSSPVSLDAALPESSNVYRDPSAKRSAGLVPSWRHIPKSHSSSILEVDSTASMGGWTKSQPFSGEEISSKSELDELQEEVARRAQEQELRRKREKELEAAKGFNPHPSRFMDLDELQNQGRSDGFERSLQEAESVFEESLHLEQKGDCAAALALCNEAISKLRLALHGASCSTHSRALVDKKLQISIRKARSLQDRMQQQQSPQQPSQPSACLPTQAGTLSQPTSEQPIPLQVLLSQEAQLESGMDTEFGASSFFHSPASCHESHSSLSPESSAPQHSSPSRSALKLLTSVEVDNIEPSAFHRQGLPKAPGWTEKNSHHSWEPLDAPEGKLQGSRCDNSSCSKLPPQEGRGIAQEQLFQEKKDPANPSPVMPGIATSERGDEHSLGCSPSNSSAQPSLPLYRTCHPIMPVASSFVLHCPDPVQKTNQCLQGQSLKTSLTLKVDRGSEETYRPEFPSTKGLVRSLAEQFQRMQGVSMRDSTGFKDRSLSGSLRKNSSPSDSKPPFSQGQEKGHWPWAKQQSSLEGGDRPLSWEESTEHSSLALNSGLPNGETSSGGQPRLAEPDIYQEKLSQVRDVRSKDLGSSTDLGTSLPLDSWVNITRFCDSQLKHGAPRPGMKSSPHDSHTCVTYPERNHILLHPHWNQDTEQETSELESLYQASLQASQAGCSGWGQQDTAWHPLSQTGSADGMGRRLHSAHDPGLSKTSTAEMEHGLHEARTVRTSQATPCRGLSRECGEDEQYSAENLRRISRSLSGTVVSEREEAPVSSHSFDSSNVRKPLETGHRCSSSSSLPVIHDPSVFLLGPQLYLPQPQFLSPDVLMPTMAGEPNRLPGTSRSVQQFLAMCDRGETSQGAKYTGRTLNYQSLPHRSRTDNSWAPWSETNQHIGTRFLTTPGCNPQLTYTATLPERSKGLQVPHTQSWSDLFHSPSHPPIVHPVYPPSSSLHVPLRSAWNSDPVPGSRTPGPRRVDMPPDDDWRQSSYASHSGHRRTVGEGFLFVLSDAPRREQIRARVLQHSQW
UniProt P13202: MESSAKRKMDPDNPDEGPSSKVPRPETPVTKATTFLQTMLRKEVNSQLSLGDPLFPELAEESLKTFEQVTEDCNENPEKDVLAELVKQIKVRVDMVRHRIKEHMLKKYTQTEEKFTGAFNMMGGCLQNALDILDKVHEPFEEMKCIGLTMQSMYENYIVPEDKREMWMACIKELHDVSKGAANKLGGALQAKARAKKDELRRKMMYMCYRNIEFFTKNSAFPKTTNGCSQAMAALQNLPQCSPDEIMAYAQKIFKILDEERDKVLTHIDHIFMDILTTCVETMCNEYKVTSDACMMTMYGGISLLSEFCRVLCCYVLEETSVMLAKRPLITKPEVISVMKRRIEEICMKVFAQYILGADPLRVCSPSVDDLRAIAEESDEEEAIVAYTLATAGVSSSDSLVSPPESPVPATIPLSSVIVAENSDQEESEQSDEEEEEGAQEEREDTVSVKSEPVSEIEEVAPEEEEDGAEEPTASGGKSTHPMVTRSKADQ

[2] = molecular target: T2, Breast carcinoma amplified sequence 2 (human) (UniProt O75934)
T2 sequence: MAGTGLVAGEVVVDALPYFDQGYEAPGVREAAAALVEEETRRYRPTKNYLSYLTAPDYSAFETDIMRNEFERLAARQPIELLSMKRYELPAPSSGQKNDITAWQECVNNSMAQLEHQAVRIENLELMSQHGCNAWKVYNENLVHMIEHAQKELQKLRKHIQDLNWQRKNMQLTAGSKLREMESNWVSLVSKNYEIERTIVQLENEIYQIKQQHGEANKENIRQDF

[3] = molecular target: Bromodomain and PHD finger containing, 1 (BRPF1) (human) (UniProt P55201)
[4] = molecular target: HDAC3 (human) (UniProt O15379)
[5] = molecular target: T3, Histone deacetylase 10 (HDAC10) (human) (UniProt Q969S8)
T3 sequence: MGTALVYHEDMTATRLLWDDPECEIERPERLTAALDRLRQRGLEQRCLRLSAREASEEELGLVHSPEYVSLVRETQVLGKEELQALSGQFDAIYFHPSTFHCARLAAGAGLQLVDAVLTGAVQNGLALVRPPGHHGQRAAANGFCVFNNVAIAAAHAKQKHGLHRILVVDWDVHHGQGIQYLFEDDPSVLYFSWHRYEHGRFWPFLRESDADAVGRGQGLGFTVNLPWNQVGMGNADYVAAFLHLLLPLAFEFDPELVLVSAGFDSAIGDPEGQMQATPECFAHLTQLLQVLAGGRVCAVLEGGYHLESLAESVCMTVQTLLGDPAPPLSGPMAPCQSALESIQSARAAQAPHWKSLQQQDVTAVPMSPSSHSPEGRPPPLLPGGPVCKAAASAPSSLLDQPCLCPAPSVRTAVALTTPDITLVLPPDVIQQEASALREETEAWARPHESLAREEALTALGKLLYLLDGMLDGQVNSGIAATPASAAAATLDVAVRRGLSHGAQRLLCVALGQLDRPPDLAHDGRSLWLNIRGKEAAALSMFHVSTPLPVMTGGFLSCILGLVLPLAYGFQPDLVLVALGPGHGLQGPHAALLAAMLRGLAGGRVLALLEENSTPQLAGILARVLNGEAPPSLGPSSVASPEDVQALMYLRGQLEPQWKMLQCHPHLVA

[6] = molecular target: Jumonji domain containing 3 (JMJD3) (human) (UniProt O15054)
[7] = molecular target: KIAA1668 protein (human) (UniProt Q8N3F8)
[8] = molecular target: LSM14B, SCD6 homolog B (human) (UniProt Q9BX40)
[9] = molecular target: Meis homeobox 2 (MEIS2) (human) (UniProt O14770)
[10] = molecular target: NuMA protein (human) (UniProt Q14980)
[11] = molecular target: Phosphatidylinositol-4-phosphate 5-kinase, type I, gamma (PIP5K1C) (human) (UniProt O60331)
[12] = molecular target: Protein tyrosine phosphatase, receptor type f polypeptide (PTPRF), interacting protein (liprin), alpha 3 (PPFIA3) (human) (UniProt O75145)
[13] = molecular target: T4, Splicing factor, arginine/serine-rich 2 (human) (UniProt Q01130)
T4 sequence: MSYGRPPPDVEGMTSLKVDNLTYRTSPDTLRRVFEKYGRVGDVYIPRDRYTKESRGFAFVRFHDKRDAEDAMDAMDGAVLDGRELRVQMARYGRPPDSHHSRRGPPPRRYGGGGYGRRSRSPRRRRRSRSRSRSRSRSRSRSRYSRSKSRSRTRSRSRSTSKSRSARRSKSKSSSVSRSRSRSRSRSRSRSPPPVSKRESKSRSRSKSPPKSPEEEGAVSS

[14] = molecular target: Staufen, RNA binding protein (human) (UniProt O95793)
[15] = molecular target: Tankyrase 1 binding protein 1, (TNKS1BP1) (human) (UniProt Q9C0C2)
[16] = molecular target: Transcription factor 3 (E2A immunoglobulin enhancer binding factors E12/E47) (TCF3) (human) (UniProt P15923)
[17] = molecular target: Ubiquitin specific peptidase 54 (USP54) (human) (UniProt Q70EL1)

Measured: binding

Human cytomegalovirus immediate-early protein 1 (from UniProt P13202 1-491)
no binding: [4]
binds: all other assays above

Source: article PMC3917433
